# Counter-ions that a name gives are not always drawn. The list shows a part of the results. Repeats in this data set agree poorly, so a single value says little.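 Cells: ReNCell VM human fetal ventral-midbrain neural progenitors, differentiated mitogen-free. Blinded raters compared doublecortin-stained (early neurons) or tyrosine hydroxylase-stained (dopaminergic neurons) images with untreated wells, where 0 means no change. After repeats and both raters were averaged, compounds scoring 2 or above became hits for retesting.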
# Key:
# [1] = test system: ReNCell VM; experiment: neuronal differentiation score (DCX+ cell fraction vs untreated, manual image score) (score (-3 to 3)); higher = more neuronal differentiation; conditions: 2 uM, 2 weeks
# [2] = test system: ReNCell VM; experiment: dopaminergic neuron differentiation score (TH+ cell fraction vs untreated, manual image score) (score (0 to 3)); higher = more TH+ dopaminergic neuron differentiation; conditions: 2 uM, 4 weeks, BDNF 10 ng/ml + GDNF 10 ng/ml
structure (smiles),measurement,setting,value
CC(C)NC[C@H](O)COc1cccc2[nH]ccc12 [(S)-(-)-Pindolol],neuronal differentiation score,[1]; library: Tocriscreen,inactive: 0
same,dopaminergic neuron differentiation score,[2]; library: Tocriscreen,inactive: 0
FC(F)(F)COCC(F)(F)F,neuronal differentiation score,[1]; library: Spectrum,inactive: 0
same,dopaminergic neuron differentiation score,[2]; library: Spectrum,inactive: 0
CN1CCC(OC(c2ccccc2)c2ccccc2)CC1,neuronal differentiation score,[1]; library: Spectrum,inactive: 0
same,dopaminergic neuron differentiation score,[2]; library: Spectrum,inactive: 0
C[C@@H]1C[C@H]2[C@@H]3C[C@H](F)C4=CC(=O)C=C[C@]4(C)[C@@]3(F)[C@@H](O)C[C@]2(C)[C@@]1(O)C(=O)CO [Flumethasone],neuronal differentiation score,[1]; library: Prestwick,inactive: 0
same,dopaminergic neuron differentiation score,[2]; library: Prestwick,inactive: 0
CC1(C)O[C@@H]2C[C@H]3[C@@H]4C[C@H](F)C5=CC(=O)C=C[C@]5(C)[C@@]4(F)[C@@H](O)C[C@]3(C)[C@]2(C(=O)CO)O1 [Fluocinolone acetonide],neuronal differentiation score,[1]; library: Prestwick,inactive: 0
same,dopaminergic neuron differentiation score,[2]; library: Prestwick,inactive: 0
CC(C)NCC(O)COc1cccc2ccccc12 (racemic),neuronal differentiation score,[1]; library: Spectrum,inactive: -1
same,dopaminergic neuron differentiation score,[2]; library: Spectrum,inactive: 0
CC(C(=O)O)c1ccc(C(=O)c2ccccc2)s1 (stereo not given) [Tiaprofenic acid],neuronal differentiation score,[1]; library: Prestwick,inactive: 0
same,dopaminergic neuron differentiation score,[2]; library: Prestwick,inactive: 0
O=C(O)CCC/C=C\C[C@@H]1CO[C@H](C(F)(F)F)O[C@@H]1c1ccccc1O,neuronal differentiation score,[1]; library: Tocriscreen,inactive: 0
same,dopaminergic neuron differentiation score,[2]; library: Tocriscreen,active: 2
CCC(=O)O[C@@H](O[P@](=O)(CCCCc1ccccc1)CC(=O)N1C[C@H](C2CCCCC2)C[C@H]1C(=O)O)C(C)C [Fosinopril],neuronal differentiation score,[1]; library: Prestwick,inactive: 0
same,dopaminergic neuron differentiation score,[2]; library: Prestwick,inactive: 0
CC(C)NC(=N)NC(=N)Nc1ccc(Cl)cc1,neuronal differentiation score,[1]; library: Spectrum,inactive: 0
same,dopaminergic neuron differentiation score,[2]; library: Spectrum,inactive: 0
CSc1nc(N)c2ncn([C@@H]3O[C@H](COP(=O)(O)OP(=O)(O)OP(=O)(O)O)[C@H](O)C3O)c2n1 (stereo not given in full) [2-Methylthioadenosine triphosphate tetrasodium],neuronal differentiation score,[1]; library: LOPAC,inactive: 0
same,dopaminergic neuron differentiation score,[2]; library: LOPAC,inactive: 0
CCCC(C(=O)OCCN(CC)CC)(c1ccccc1)c1ccccc1 [SKF-525A hydrochloride],neuronal differentiation score,[1]; library: LOPAC,inactive: 0
same,dopaminergic neuron differentiation score,[2]; library: LOPAC,inactive: 0
CC[C@H]1OC(=O)[C@H](C)[C@@H](O[C@H]2C[C@@](C)(OC)[C@@H](O)[C@H](C)O2)[C@H](C)[C@@H](O[C@@H]2O[C@H](C)C[C@H](N(C)C)[C@H]2O)[C@](C)(O)C[C@@H](C)/C(=N\OCOCCOC)[C@H](C)[C@@H](O)[C@]1(C)O [Roxithromycin],neuronal differentiation score,[1]; library: Prestwick,inactive: 0
same,dopaminergic neuron differentiation score,[2]; library: Prestwick,inactive: 0
C=CC[S+]([O-])C[C@H](N)C(=O)O (mixture of isomers),neuronal differentiation score,[1]; library: Spectrum,inactive: 0
same,dopaminergic neuron differentiation score,[2]; library: Spectrum,inactive: 0
C[N+]1(C)CCC(=C(c2ccccc2)c2ccccc2)CC1 [Diphemanil methylsulfate],neuronal differentiation score,[1]; library: Prestwick,inactive: 0
same,dopaminergic neuron differentiation score,[2]; library: Prestwick,inactive: 0
CC[C@]1(O)C[C@@H]2CN(CCc3c([nH]c4ccccc34)[C@@](C(=O)OC)(c3cc4c(cc3OC)N(C)[C@H]3[C@@](O)(C(=O)OC)[C@H](OC(C)=O)[C@]5(CC)C=CCN6CC[C@]43[C@@H]65)C2)C1 [Vinblastine sulfate salt],neuronal differentiation score,[1]; library: LOPAC,inactive: 0
same,dopaminergic neuron differentiation score,[2]; library: LOPAC,inactive: 0
COc1cc(OC)c(C(=O)CCCN2CCCC2)c(OC)c1 [Buflomedil hydrochloride],neuronal differentiation score,[1]; library: Prestwick,inactive: 0
same,dopaminergic neuron differentiation score,[2]; library: Prestwick,inactive: 0
CCOc1cccc(C(=O)c2ccc(O)c(O)c2O)c1,neuronal differentiation score,[1]; library: Spectrum,inactive: 0
same,dopaminergic neuron differentiation score,[2]; library: Spectrum,inactive: 0
CCOC(=O)c1c(C)cc(O)c(C=O)c1O,neuronal differentiation score,[1]; library: Spectrum,inactive: 0
same,dopaminergic neuron differentiation score,[2]; library: Spectrum,inactive: 0
CN(C)CCC[C@@]1(c2ccc(F)cc2)OCc2cc(C#N)ccc21 [Escitalopram],neuronal differentiation score,[1]; library: Prestwick,inactive: 0
same,dopaminergic neuron differentiation score,[2]; library: Prestwick,inactive: 0
CN1[C@@H]2CC[C@H]1C[C@@H](OC(=O)c1c[nH]c3ccccc13)C2 [Tropisetron hydrochloride],neuronal differentiation score,[1]; library: Tocriscreen,inactive: 0
same,dopaminergic neuron differentiation score,[2]; library: Tocriscreen,inactive: 0
N[C@@H](CS(=O)O)C(=O)O [L-Cysteinesulfinic acid],neuronal differentiation score,[1]; library: Tocriscreen,inactive: 0
same,dopaminergic neuron differentiation score,[2]; library: Tocriscreen,inactive: 0
O=P(O)(O)C(Cl)(Cl)P(=O)(O)O [Clodronate],neuronal differentiation score,[1]; library: Prestwick,inactive: 0
same,dopaminergic neuron differentiation score,[2]; library: Prestwick,inactive: 0
CC(C)C[C@H](NP(=O)(O)O[C@H]1O[C@H](C)[C@@H](O)[C@H](O)[C@@H]1O)C(=O)N[C@@H](Cc1c[nH]c2ccccc12)C(=O)O [Phosphoramidon disodium],neuronal differentiation score,[1]; library: LOPAC,inactive: 0
same,dopaminergic neuron differentiation score,[2]; library: LOPAC,inactive: 0
CC(C)(O)c1ccccc1CC[C@@H](SCC1(CC(=O)O)CC1)c1cccc(/C=C/c2ccc3ccc(Cl)cc3n2)c1 [Montelukast],neuronal differentiation score,[1]; library: Prestwick,inactive: 0
same,dopaminergic neuron differentiation score,[2]; library: Prestwick,inactive: 0

# Given with bars between the fields: entries from further up
structure (smiles) | measurement | setting | value
CCC(=O)O[C@@H](O[P@](=O)(CCCCc1ccccc1)CC(=O)N1C[C@H](C2CCCCC2)C[C@H]1C(=O)O)C(C)C [Fosinopril] | neuronal differentiation score | [1]; library: Prestwick | inactive: 0
same | dopaminergic neuron differentiation score | [2]; library: Prestwick | inactive: 0
CC(C)NC(=N)NC(=N)Nc1ccc(Cl)cc1 | neuronal differentiation score | [1]; library: Spectrum | inactive: 0
same | dopaminergic neuron differentiation score | [2]; library: Spectrum | inactive: 0
CSc1nc(N)c2ncn([C@@H]3O[C@H](COP(=O)(O)OP(=O)(O)OP(=O)(O)O)[C@H](O)C3O)c2n1 (stereo not given in full) [2-Methylthioadenosine triphosphate tetrasodium] | neuronal differentiation score | [1]; library: LOPAC | inactive: 0
same | dopaminergic neuron differentiation score | [2]; library: LOPAC | inactive: 0
CCCC(C(=O)OCCN(CC)CC)(c1ccccc1)c1ccccc1 [SKF-525A hydrochloride] | neuronal differentiation score | [1]; library: LOPAC | inactive: 0
same | dopaminergic neuron differentiation score | [2]; library: LOPAC | inactive: 0
CC[C@H]1OC(=O)[C@H](C)[C@@H](O[C@H]2C[C@@](C)(OC)[C@@H](O)[C@H](C)O2)[C@H](C)[C@@H](O[C@@H]2O[C@H](C)C[C@H](N(C)C)[C@H]2O)[C@](C)(O)C[C@@H](C)/C(=N\OCOCCOC)[C@H](C)[C@@H](O)[C@]1(C)O [Roxithromycin] | neuronal differentiation score | [1]; library: Prestwick | inactive: 0
same | dopaminergic neuron differentiation score | [2]; library: Prestwick | inactive: 0
C=CC[S+]([O-])C[C@H](N)C(=O)O (mixture of isomers) | neuronal differentiation score | [1]; library: Spectrum | inactive: 0
same | dopaminergic neuron differentiation score | [2]; library: Spectrum | inactive: 0
C[N+]1(C)CCC(=C(c2ccccc2)c2ccccc2)CC1 [Diphemanil methylsulfate] | neuronal differentiation score | [1]; library: Prestwick | inactive: 0

# Source: the supplement of paper PMC4635364
